Measured values: publication PMC4786873 (Nature Communications, 2016)
HELM strings list residues between dots; [ac] is acetyl, [am] amide, other brackets name non-standard units.

Columns and labels:
[1] = general procedure: Fmoc solid-phase peptide synthesis; Sieber amide resin (0.69 mmol/g) for linear peptides 4-7; 2-chlorotrityl polystyrene resin (0.94 mmol/g) for 8; DIC/OxymaPure (DIC/HOBt for Arg; PyBOP/HOBt/DIPEA for amino acid 3 in peptide 8); details: for final HPLC purity: whole synthesis
[2] = general procedure: Fmoc solid-phase peptide synthesis; 2-chlorotrityl polystyrene resin; DIC/OxymaPure (DIC/HOBt for Arg; PyBOP/HOBt/DIPEA for amino acid 3 in peptide 8); details: whole synthesis

| Substance | final HPLC purity ([1]; HPLC) | also measured |
| --- | --- | --- |
| PEPTIDE1{A.A.A.[Trp(C2-BODIPY)].F.W.[am]}$$$$V2.0 | 96% purity |  |
| PEPTIDE1{R.K.K.W.F.W.G}$PEPTIDE1,PEPTIDE1,1:R1-7:R2$$$V2.0 | 98% purity | crude yield [2]: 72% |
| PEPTIDE1{R.K.K.W.F.W.[am]}$$$$V2.0 | 95% purity |  |
| PEPTIDE1{R.K.K.W.F.[Trp(C2-BODIPY)].[am]}$$$$V2.0 | 90% purity |  |
| PEPTIDE1{R.K.K.[Trp(C2-BODIPY)].A.A.[am]}$$$$V2.0 | 99% purity |  |
| PEPTIDE1{R.K.K.[Trp(C2-BODIPY)].F.W.G}$PEPTIDE1,PEPTIDE1,1:R1-7:R2$$$V2.0 | 98% purity | cyclisation yield ([1]; cyclisation step, on protected linear peptide): 87% yield; step yield ([1]; late stage modification step): around 60%; purity (crude or final not stated) ([1]; late stage modification step, HPLC): over 90% |
| PEPTIDE1{R.K.K.[Trp(C2-BODIPY)].F.W.[am]}$$$$V2.0 | 90% purity |  |
| PEPTIDE1{R.K.K.[Trp(C2-BODIPY)].F.[Trp(C2-BODIPY)].[am]}$$$$V2.0 | 91% purity |  |
